Laboratory results from article PMC7948726.

By UniProt entry, the sequences of proteins in these tests, tags left out.
UniProt P31946: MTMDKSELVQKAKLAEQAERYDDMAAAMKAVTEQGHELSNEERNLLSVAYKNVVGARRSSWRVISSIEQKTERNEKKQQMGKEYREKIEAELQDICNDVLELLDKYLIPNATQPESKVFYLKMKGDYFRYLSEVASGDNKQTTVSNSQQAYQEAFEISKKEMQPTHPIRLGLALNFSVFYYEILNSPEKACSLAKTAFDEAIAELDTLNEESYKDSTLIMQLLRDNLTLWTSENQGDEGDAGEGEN

How the values were obtained:
Myc-PPM1A = biological target: T1, Myc-PPM1A (UniProt P35813); experiment: co-IP; SH-SY5Y cells transfected 24 h with Xpress-DYRK1A, Myc-PPM1A or Myc-PPM1B; lysate precipitated with anti-Myc, blot with anti-Xpress; 1% Nonidet P-40 lysis buffer
T1 sequence: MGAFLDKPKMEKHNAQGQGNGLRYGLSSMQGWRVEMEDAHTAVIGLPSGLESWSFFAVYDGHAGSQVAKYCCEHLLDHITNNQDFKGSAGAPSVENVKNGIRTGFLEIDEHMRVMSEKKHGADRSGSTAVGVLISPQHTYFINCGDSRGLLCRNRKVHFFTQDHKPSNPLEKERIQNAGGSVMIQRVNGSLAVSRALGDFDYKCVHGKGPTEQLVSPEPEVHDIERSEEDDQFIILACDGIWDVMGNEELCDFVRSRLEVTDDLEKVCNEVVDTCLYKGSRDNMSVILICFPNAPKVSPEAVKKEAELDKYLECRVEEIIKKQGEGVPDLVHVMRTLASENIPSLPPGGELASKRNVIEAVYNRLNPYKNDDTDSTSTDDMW

[1] = biological target: FLAG-tagged wild-type DYRK1A (rat) (UniProt Q63470); experiment: co-IP; HEK293 cells transfected 24 h with FLAG-DYRK1A-WT or FLAG-DYRK1A-S529A, HA-14-3-3β, with or without Myc-PPM1B; precipitated with anti-FLAG, blot with anti-HA

| binding (Myc-PPM1A) | binding [1] | Substance |
| --- | --- | --- |
| binds | – | Xpress-DYRK1A (pXpress-His6-DYRK1A-WT) (from UniProt Q63470) (enzyme) |
| – | binds | HA-14-3-3β (from UniProt P31946 1-246) |

Results are given in words; binding and its absence hold for the method and conditions named. In cells and extracts the contact can be indirect. Binding calls can cover weak binding; strength is not graded here. For some assays here: Sequences can lack the tags named with a protein.
